The target in the assay is GFP-RhoA-wild-type (UniProt P61586). The experiment in a line: affinity purification with mass spectrometry; RhoA cKO VSMCs transfected with GFP-RhoA-WT or GFP, stimulated with AngII for 24 h; lysates immunoprecipitated with anti-GFP antibody; CBB-stained bands specific to the GFP-RhoA-WT lane excised and analysed by LC-MS/MS.

The chains behind the UniProt entries cited, without tags or fusion partners.
UniProt P61586: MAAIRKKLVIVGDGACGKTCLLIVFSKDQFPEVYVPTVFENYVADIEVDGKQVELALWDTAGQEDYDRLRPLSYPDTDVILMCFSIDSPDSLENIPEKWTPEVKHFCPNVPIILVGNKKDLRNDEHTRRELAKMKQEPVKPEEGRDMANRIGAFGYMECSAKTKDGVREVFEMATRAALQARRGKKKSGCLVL
UniProt Q9EQU5: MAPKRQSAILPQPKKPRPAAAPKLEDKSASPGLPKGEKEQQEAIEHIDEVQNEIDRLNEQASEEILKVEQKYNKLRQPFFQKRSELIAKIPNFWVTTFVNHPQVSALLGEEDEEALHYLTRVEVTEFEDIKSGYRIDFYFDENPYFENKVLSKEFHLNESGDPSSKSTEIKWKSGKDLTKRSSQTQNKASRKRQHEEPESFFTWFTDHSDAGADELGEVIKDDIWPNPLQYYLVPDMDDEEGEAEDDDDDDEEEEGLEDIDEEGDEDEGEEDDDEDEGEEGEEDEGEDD

Experimental findings from article PMC9546906 are described below.

These are yes or no findings as the source states them, for the method shown. Binding seen in cells or lysates may run through a third protein. Here binding means that the protein was enriched with, or labelled near, the bait; the list need not be complete.

As for “Set (endogenous) (from UniProt Q9EQU5 1-289)”, the binding entry is recorded as “binds”.
